Where two headings read alike, the source gives them in different places. At least one compound was matched to its structure with a doubt left.
Format: physicochemical
Conditions: 37° C.
Description: The stability CBD and CBD analogs (CBD-Mono-VHS and CBD-Di-VHS) was evaluated under acidic and alkaline conditions to simulate exposure to gastric and intestinal fluids. The procedure is outlined as follows: • 1. Stock solution of 5 mg/mL CBD, CBD-Mono-Val-Mono HS, CBD-Di-Val-Di HS was prepared. • 2. Simulated Gastric Fluid (pH 1.2)+1% (SDS) was prepared and kept in 37° C. water bath. • 3. Physiological buffer (pH 7.4)+1% SDS was prepared and kept in 37° C. water bath. • 4. 100 μL of CBD, CBD-Mono-Val-Mono HS or CBD-Di-Val-Di-HS stock in acetonitrile (equivalent to 500 μg) was spiked into separate vials containing 5 ml of either pH 1.2 and 7.4. • 5. At each time point, 100 μL of the solution was withdrawn. • 6. 900 μL acetonitrile was added to each sample. • 7. All samples centrifuged at 4° C. and 13,000 rpm. • 8. 100 μL of the supernatant was withdrawn; to this 100 μL of supernatant, 900 μL of acetonitrile was added and placed in LC vials for analysis. Tables 9, 10 and 11, and FIGS. 7a, 7b, 18, and 19 show the results.

C=C(C)C1CCC(C)=CC1c1c(OC(=O)[C@@H](NC(=O)CCC(=O)O)C(C)C)cc(CCCCC)cc1OC(=O)[C@@H](NC(=O)CCC(=O)O)C(C)C (stereo partly drawn) [CBD-Val-HS, CBD-Di-Valinate-Di-Hemisuccinate]
Concentration of CBD-Di-Val-Di-HS (Acid (pH 1.2), Time Point 0): 754 ng/mL
Concentration of CBD-Di-Val-Di-HS (Acid (pH 1.2), Time Point 15): 1797 ng/mL
Concentration of CBD-Di-Val-Di-HS (Acid (pH 1.2), Time Point 30): 1498 ng/mL
Concentration of CBD-Di-Val-Di-HS (Acid (pH 1.2), Time Point 60): 1881 ng/mL
Concentration of CBD-Di-Val-Di-HS (Acid (pH 1.2), Time Point 90): 1863 ng/mL
Concentration of CBD-Di-Val-Di-HS (Acid (pH 1.2), Time Point 120): 1883 ng/mL
Concentration of CBD-Di-Val-Di-HS (Base (pH 7.4), Time Point 0): 794 ng/mL
Concentration of CBD-Di-Val-Di-HS (Base (pH 7.4), Time Point 15): 865 ng/mL
Concentration of CBD-Di-Val-Di-HS (Base (pH 7.4), Time Point 30): 1131 ng/mL
Concentration of CBD-Di-Val-Di-HS (Base (pH 7.4), Time Point 60): 1397 ng/mL
Concentration of CBD-Di-Val-Di-HS (Base (pH 7.4), Time Point 90): 1386 ng/mL
Concentration of CBD-Di-Val-Di-HS (Base (pH 7.4), Time Point 120): 1223 ng/mL

Reference: patent publication US11337950B2, “Biologically active cannabidiol analogs” (University of Mississippi, priority 2016, dated 2022)
